According to the supplement of paper PMC12823440, “Inhibitors supercharge kinase turnover through native proteolytic circuits” (Nature, 2025):
This is one part of the list. The calls rarely recur for the same compound in another form.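 In K562 cells expressing nanoluciferase-fused kinases, luminescence was recorded at 4 h intervals between 2 and 18 h, normalized as percent of control with DMSO at 100% and a positive control at 0%. A significant (2 sigma) signal drop marks a time point as decreased. The authors' rule for a hit is not shown and takes in more than the number of time points.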

Chains of the proteins cited; added tags and fusions are not shown. Lines headed by an entry give the natural chain unless they say otherwise; changes in a name come on top.
UniProt P28482, whole entry: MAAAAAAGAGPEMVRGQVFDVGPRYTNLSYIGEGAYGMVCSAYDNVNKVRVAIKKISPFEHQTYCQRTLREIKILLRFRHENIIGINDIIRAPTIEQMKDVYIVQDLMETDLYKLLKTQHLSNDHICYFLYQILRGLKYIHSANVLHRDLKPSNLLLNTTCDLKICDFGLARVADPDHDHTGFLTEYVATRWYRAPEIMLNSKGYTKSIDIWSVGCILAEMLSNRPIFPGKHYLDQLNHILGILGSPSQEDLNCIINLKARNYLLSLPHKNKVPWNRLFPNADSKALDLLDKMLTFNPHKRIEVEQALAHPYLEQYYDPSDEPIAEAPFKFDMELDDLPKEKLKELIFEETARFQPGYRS
UniProt P49137, whole entry, looked up: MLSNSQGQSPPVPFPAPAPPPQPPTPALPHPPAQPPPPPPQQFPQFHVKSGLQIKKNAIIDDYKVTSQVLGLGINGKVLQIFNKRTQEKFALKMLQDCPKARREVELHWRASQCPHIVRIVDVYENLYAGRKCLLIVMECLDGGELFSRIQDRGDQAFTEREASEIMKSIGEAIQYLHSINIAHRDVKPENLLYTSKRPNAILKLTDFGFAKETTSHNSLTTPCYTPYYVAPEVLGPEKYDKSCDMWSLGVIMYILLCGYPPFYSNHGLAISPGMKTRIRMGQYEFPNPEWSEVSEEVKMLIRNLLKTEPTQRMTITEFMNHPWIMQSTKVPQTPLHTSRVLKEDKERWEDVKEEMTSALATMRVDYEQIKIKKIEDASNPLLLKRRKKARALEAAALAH
UniProt O96013: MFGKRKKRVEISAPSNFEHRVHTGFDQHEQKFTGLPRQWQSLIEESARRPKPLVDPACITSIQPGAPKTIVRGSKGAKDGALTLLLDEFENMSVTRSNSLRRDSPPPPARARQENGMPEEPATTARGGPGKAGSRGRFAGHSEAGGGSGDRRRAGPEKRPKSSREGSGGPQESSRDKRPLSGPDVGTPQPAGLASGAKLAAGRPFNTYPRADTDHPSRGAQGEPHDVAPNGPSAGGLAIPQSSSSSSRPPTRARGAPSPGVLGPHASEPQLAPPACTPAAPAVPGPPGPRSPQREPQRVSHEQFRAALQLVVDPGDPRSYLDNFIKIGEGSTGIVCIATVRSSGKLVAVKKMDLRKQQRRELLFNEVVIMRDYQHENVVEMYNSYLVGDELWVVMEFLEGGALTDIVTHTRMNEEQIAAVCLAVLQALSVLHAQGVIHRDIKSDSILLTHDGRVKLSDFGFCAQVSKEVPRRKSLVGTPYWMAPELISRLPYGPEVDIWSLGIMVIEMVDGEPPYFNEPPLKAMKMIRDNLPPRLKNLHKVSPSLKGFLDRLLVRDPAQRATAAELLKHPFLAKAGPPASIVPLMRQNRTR
UniProt Q96KB5: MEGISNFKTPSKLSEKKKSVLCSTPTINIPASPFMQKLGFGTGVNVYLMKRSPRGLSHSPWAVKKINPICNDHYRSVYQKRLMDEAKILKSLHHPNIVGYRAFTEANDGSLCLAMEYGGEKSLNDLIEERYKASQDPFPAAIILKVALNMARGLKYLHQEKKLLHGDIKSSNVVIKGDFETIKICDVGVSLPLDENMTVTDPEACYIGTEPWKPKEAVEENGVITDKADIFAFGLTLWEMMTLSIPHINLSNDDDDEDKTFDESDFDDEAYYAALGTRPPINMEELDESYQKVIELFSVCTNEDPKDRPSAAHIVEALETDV
UniProt P09619, whole entry: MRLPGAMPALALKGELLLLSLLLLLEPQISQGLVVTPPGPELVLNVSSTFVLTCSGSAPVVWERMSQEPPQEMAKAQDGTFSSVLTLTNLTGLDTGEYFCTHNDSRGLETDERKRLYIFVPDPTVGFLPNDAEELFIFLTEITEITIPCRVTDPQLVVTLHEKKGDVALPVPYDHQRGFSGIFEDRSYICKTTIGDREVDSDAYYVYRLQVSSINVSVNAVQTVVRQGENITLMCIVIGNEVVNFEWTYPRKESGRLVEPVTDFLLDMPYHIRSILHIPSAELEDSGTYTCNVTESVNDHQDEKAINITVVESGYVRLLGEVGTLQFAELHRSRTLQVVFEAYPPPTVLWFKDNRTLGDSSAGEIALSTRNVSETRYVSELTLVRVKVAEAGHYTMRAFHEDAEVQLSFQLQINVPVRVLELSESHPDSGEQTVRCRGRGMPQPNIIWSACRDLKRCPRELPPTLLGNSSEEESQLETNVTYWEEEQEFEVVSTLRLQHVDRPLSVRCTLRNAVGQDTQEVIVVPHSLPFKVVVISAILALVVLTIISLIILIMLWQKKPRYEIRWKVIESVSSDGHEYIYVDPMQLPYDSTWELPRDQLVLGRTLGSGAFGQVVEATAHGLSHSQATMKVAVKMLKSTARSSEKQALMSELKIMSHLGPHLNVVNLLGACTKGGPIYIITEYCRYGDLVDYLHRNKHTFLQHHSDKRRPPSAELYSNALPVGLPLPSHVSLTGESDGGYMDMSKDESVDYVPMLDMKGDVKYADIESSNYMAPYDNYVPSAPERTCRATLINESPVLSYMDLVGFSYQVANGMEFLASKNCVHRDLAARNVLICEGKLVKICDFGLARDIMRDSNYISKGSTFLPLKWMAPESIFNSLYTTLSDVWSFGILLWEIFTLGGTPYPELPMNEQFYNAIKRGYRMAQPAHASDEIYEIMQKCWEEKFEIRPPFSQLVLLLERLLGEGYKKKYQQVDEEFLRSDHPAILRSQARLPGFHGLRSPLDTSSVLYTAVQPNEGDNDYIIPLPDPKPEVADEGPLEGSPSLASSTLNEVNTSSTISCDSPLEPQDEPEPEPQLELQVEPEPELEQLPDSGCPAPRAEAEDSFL
UniProt Q15118, whole entry, looked up: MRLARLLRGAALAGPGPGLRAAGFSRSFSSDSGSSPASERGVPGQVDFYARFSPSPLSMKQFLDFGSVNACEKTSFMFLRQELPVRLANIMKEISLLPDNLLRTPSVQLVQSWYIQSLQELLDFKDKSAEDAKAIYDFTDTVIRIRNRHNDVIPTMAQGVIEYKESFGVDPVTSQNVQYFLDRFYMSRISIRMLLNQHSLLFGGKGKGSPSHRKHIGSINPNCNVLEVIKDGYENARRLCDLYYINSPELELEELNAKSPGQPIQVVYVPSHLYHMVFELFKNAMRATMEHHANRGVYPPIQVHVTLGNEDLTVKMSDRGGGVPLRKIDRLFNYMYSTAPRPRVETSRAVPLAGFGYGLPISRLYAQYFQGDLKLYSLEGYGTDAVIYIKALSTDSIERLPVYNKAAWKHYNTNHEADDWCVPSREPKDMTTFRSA
UniProt P42356, whole entry, looked up: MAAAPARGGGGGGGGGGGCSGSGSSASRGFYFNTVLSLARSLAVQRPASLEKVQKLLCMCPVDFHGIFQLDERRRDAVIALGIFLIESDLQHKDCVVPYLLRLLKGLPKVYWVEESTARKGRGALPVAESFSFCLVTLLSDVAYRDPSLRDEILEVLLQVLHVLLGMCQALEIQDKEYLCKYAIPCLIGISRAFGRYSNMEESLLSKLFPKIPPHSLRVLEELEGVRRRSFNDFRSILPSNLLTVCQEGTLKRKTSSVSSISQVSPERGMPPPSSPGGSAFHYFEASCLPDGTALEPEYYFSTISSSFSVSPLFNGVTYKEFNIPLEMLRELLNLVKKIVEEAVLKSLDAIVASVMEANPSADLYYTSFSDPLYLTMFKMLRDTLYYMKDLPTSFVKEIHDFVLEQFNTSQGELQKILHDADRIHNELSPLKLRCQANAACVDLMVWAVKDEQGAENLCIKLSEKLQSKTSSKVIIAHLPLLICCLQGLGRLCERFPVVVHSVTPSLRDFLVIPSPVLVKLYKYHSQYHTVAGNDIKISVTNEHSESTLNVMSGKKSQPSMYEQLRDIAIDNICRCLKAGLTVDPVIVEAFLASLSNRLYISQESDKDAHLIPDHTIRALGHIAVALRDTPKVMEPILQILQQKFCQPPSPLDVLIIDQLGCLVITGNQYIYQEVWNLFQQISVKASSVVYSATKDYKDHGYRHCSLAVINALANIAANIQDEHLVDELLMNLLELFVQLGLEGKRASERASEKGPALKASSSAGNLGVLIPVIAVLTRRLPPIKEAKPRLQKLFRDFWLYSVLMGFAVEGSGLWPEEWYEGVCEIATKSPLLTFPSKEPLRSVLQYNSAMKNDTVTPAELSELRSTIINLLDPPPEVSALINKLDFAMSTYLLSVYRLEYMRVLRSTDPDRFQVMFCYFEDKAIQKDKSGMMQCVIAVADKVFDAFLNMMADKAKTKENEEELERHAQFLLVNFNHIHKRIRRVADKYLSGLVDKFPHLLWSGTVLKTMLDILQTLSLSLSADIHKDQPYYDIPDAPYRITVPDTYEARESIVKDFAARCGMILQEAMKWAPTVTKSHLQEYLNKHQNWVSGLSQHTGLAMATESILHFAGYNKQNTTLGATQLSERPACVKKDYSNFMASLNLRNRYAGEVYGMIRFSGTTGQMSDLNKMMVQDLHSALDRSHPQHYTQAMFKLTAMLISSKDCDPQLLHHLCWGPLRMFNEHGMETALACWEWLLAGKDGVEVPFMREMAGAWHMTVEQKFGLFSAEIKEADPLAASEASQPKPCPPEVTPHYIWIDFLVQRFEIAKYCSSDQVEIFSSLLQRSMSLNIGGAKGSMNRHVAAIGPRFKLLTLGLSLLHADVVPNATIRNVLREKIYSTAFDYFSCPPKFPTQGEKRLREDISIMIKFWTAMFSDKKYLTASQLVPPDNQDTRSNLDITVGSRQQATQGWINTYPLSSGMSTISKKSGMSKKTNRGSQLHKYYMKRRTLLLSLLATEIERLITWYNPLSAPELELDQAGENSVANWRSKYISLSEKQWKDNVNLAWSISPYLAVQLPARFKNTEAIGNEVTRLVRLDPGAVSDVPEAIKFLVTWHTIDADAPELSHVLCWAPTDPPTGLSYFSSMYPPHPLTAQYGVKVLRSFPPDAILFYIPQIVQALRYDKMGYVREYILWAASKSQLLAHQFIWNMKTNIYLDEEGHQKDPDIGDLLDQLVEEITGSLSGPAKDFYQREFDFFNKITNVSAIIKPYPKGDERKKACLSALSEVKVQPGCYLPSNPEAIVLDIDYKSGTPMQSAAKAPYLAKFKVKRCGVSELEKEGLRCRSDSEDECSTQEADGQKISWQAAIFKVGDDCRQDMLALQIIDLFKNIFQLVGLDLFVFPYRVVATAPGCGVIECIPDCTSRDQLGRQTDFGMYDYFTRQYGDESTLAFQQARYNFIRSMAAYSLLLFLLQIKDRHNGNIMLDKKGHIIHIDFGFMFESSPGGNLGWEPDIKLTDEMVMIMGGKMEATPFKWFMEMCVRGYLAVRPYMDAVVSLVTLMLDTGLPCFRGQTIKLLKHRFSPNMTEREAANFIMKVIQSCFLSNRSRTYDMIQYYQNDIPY
UniProt P53350, whole entry: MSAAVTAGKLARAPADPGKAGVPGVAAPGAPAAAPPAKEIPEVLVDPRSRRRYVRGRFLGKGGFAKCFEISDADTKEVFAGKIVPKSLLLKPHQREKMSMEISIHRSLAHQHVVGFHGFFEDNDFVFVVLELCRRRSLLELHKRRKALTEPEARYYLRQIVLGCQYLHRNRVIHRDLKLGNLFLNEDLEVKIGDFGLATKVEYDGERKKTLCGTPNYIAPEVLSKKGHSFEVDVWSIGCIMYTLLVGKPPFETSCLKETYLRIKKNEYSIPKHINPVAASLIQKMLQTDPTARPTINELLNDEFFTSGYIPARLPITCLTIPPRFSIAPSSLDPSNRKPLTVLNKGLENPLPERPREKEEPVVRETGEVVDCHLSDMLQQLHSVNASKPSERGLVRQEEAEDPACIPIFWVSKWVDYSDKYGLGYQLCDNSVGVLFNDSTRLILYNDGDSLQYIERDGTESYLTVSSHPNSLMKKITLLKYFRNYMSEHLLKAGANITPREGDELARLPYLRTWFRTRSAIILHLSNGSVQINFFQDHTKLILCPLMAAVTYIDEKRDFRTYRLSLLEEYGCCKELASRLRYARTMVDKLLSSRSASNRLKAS

What was measured:
Assay in all cases: kinase-Nluc reporter destabilization hit call (1 = scored as downregulated) (binary); higher = compound decreases kinase abundance
Details in all cases: K562; 2-18 h
[1] = biological target: MAPK1 (UniProt P28482)
[2] = biological target: MAPK4 (UniProt P31152)
[3] = biological target: MAPKAPK2 (UniProt P49137)
[4] = biological target: MKNK1 (UniProt Q9BUB5)
[5] = biological target: NTRK2 (UniProt Q16620)
[6] = biological target: NTRK3 (UniProt Q16288)
[7] = biological target: PAK4 (UniProt O96013)
[8] = biological target: PBK (UniProt Q96KB5)
[9] = biological target: PDGFRB (UniProt P09619)
[10] = biological target: PDK1 (UniProt Q15118)
[11] = biological target: PDPK1 (UniProt O15530)
[12] = biological target: PIK4CA (UniProt P42356)
[13] = biological target: PIK4CB (UniProt Q9UBF8)
[14] = biological target: PLK1 (UniProt P53350)
[15] = biological target: PRKAA1 (UniProt Q13131)
[16] = biological target: PRKCA (UniProt P17252)
[17] = biological target: PTK2 (UniProt Q05397)
[18] = biological target: PTK2B (UniProt Q14289)
[19] = biological target: RAF1 (UniProt P04049)
[20] = biological target: RAF1_S257L (clone: RAF1_mut) (UniProt P04049)

Measured: kinase-Nluc reporter destabilization hit call

CC(C)c1cccc(C(C)C)c1N1C(=O)c2ccc(N)cc2C1=O (2.5 µM)
inactive: [1] 0 | [2] 0 | [3] 0 | [4] 0 | [5] 0 | [6] 0 | [7] 0 | [8] 0 | [9] 0 | [10] 0 | [11] 0 | [12] 0 | [13] 0 | [14] 0 | [15] 0 | [16] 0 | [17] 0 | [18] 0 | [19] 0 | [20] 0

N#CC(c1ccnc(OCc2ccc(CN3CCOCC3)cc2)n1)c1nc2ccccc2s1 (stereo not given) [Bentamapimod] (2.5 µM)
inactive: [1] 0 | [2] 0 | [3] 0 | [4] 0 | [5] 0 | [6] 0 | [7] 0 | [8] 0 | [9] 0 | [10] 0 | [11] 0 | [12] 0 | [13] 0 | [14] 0 | [15] 0 | [16] 0 | [17] 0 | [18] 0 | [19] 0 | [20] 0

Cc1c(-c2ccc(C(N)=O)c3[nH]c4cc(C(C)(C)O)ccc4c23)cccc1-n1cnc2ccccc2c1=O (2.5 µM)
inactive: [1] 0 | [2] 0 | [3] 0 | [4] 0 | [5] 0 | [6] 0 | [7] 0 | [8] 0 | [9] 0 | [10] 0 | [11] 0 | [12] 0 | [13] 0 | [14] 0 | [15] 0 | [16] 0 | [17] 0 | [18] 0 | [19] 0 | [20] 0

Cc1cc(-c2ccnc(Nc3cnn(C)c3)n2)ccc1CNC(=O)N1CC(OC(C)C)C1 (10 µM)
inactive: [1] 0 | [2] 0 | [3] 0 | [4] 0 | [5] 0 | [6] 0 | [7] 0 | [8] 0 | [9] 0 | [10] 0 | [11] 0 | [12] 0 | [13] 0 | [14] 0 | [15] 0 | [16] 0 | [17] 0 | [18] 0 | [19] 0 | [20] 0

CC(C)=CC(=O)O[C@H]1Cc2cc3ccc(=O)oc3cc2OC1(C)C [Decursin] (10 µM)
inactive: [1] 0 | [2] 0 | [3] 0 | [4] 0 | [5] 0 | [6] 0 | [7] 0 | [8] 0 | [9] 0 | [10] 0 | [11] 0 | [12] 0 | [13] 0 | [14] 0 | [15] 0 | [16] 0 | [17] 0 | [18] 0 | [19] 0 | [20] 0

O=C(N[C@@H](C1CC1)C(F)(F)F)c1cc(-c2cnn3cc(-c4ccc(F)cc4)cnc23)cs1 (10 µM)
inactive: [1] 0 | [2] 0 | [3] 0 | [4] 0 | [5] 0 | [6] 0 | [7] 0 | [8] 0 | [9] 0 | [10] 0 | [11] 0 | [12] 0 | [13] 0 | [14] 0 | [15] 0 | [16] 0 | [17] 0 | [18] 0 | [19] 0 | [20] 0

C[C@@H]1CC(=O)c2c(ccc3c2C(=O)c2cccc(O)c2C3=O)C1 [Ochromycinone] (10 µM)
inactive: [1] 0 | [2] 0 | [3] 0 | [4] 0 | [5] 0 | [6] 0 | [7] 0 | [8] 0 | [9] 0 | [10] 0 | [11] 0 | [12] 0 | [13] 0 | [14] 0 | [15] 0 | [16] 0 | [17] 0 | [18] 0 | [19] 0 | [20] 0

CCCCCCCCCCCCCCCCOP(=O)([O-])OCC[N+](C)(C)C [Miltefosine] (10 µM)
inactive: [1] 0 | [2] 0 | [3] 0 | [4] 0 | [5] 0 | [6] 0 | [7] 0 | [8] 0 | [9] 0 | [10] 0 | [11] 0 | [12] 0 | [13] 0 | [14] 0 | [15] 0 | [16] 0 | [17] 0 | [18] 0 | [19] 0 | [20] 0

COc1ccccc1C(=O)/C=C/c1ccccc1C(=O)O (10 µM)
inactive: [1] 0 | [2] 0 | [3] 0 | [4] 0 | [5] 0 | [6] 0 | [7] 0 | [8] 0 | [9] 0 | [10] 0 | [11] 0 | [12] 0 | [13] 0 | [14] 0 | [15] 0 | [16] 0 | [17] 0 | [18] 0 | [19] 0 | [20] 0

O=C1/C(=C\c2ccc(Cl)cc2)C=C(c2ccccc2)N1c1ccc(O)cc1 (2.5 µM)
inactive: [1] 0 | [2] 0 | [3] 0 | [4] 0 | [5] 0 | [6] 0 | [7] 0 | [8] 0 | [9] 0 | [10] 0 | [11] 0 | [12] 0 | [13] 0 | [14] 0 | [15] 0 | [16] 0 | [17] 0 | [18] 0 | [19] 0 | [20] 0

Nc1n[nH]c2nc(-c3ccc(NS(=O)(=O)c4cc(Cl)ccc4F)cc3)cnc12 (10 µM)
inactive: [1] 0 | [2] 0 | [3] 0 | [4] 0 | [5] 0 | [6] 0 | [7] 0 | [8] 0 | [9] 0 | [10] 0 | [11] 0 | [12] 0 | [13] 0 | [14] 0 | [15] 0 | [16] 0 | [17] 0 | [18] 0 | [19] 0 | [20] 0

COc1ccc2cc(-c3nc(-c4ccc([S+](C)[O-])cc4)[nH]c3-c3ccncc3)ccc2c1 (stereo not given) [Tie2 kinase inhibitor 1] (2.5 µM)
inactive: [1] 0 | [2] 0 | [3] 0 | [4] 0 | [5] 0 | [6] 0 | [7] 0 | [8] 0 | [9] 0 | [10] 0 | [11] 0 | [12] 0 | [13] 0 | [14] 0 | [15] 0 | [16] 0 | [17] 0 | [18] 0 | [19] 0 | [20] 0

Oc1ccc(/C=C/c2cc(O)cc(O)c2)cc1 [Resveratrol] (10 µM)
inactive: [1] 0 | [2] 0 | [3] 0 | [4] 0 | [5] 0 | [6] 0 | [7] 0 | [8] 0 | [9] 0 | [10] 0 | [11] 0 | [12] 0 | [13] 0 | [14] 0 | [15] 0 | [16] 0 | [17] 0 | [18] 0 | [19] 0 | [20] 0

O=C1NC(=O)/C(=C/c2ccc3nccc(-c4ccncc4)c3c2)S1 (10 µM)
inactive: [1] 0 | [2] 0 | [3] 0 | [4] 0 | [5] 0 | [6] 0 | [7] 0 | [8] 0 | [9] 0 | [10] 0 | [11] 0 | [12] 0 | [13] 0 | [14] 0 | [15] 0 | [16] 0 | [17] 0 | [18] 0 | [19] 0 | [20] 0

Cn1cnc([N+](=O)[O-])c1C[N+](C)(C)C/C=C/C(=O)Nc1cc2c(Nc3ccc(Cl)c(Br)c3)ncnc2cn1 [Tarloxotinib (bromide)] (10 µM)
inactive: [1] 0 | [2] 0 | [3] 0 | [4] 0 | [5] 0 | [6] 0 | [7] 0 | [8] 0 | [9] 0 | [10] 0 | [11] 0 | [12] 0 | [13] 0 | [14] 0 | [15] 0 | [16] 0 | [17] 0 | [18] 0 | [19] 0 | [20] 0

Cc1cc(C)nc(NS(=O)(=O)c2ccc(NC(=S)NC(=O)COc3ccc(Br)cc3Cl)cc2)n1 (2.5 µM)
inactive: [1] 0 | [2] 0 | [3] 0 | [4] 0 | [5] 0 | [6] 0 | [7] 0 | [8] 0 | [9] 0 | [10] 0 | [11] 0 | [12] 0 | [13] 0 | [14] 0 | [15] 0 | [16] 0 | [17] 0 | [18] 0 | [19] 0 | [20] 0

Two neighbouring compounds out of the list so far, quoted:
Oc1ccc(/C=C/c2cc(O)cc(O)c2)cc1 [Resveratrol] (10 µM)
inactive: [1] 0 | [2] 0 | [3] 0 | [4] 0 | [5] 0 | [6] 0 | [7] 0 | [8] 0 | [9] 0 | [10] 0 | [11] 0 | [12] 0 | [13] 0 | [14] 0 | [15] 0 | [16] 0 | [17] 0 | [18] 0 | [19] 0 | [20] 0

O=C1NC(=O)/C(=C/c2ccc3nccc(-c4ccncc4)c3c2)S1 (10 µM)
inactive: [1] 0 | [2] 0 | [3] 0 | [4] 0 | [5] 0 | [6] 0 | [7] 0 | [8] 0 | [9] 0 | [10] 0 | [11] 0 | [12] 0 | [13] 0 | [14] 0 | [15] 0 | [16] 0 | [17] 0 | [18] 0 | [19] 0 | [20] 0
